One test concerns the target HA-tagged FBXL14 (UniProt Q8N1E6). As to the kind of experiment: co-IP; HEK293T cells transiently transfected, treated with MG132 (10 µM) for 6 h; IP with anti-HA antibody, Western blot.
In test [1] the target is vimentin in HEK293T cells cotransfected with an expression vector for vimentin (human) (UniProt P08670). As to the kind of experiment: co-IP; HEK293T cells transiently cotransfected, treated with MG132 (10 µM) for 6 h; IP with anti-vimentin antibody, Western blot. (In general: In western blotting, separated proteins are transferred to a membrane and probed.)
Test [2] deals with vimentin, endogenous (human (endogenous in UMSCC38, OSC19-Luc, HEK293T)) (UniProt P08670). Kind of test: co-IP; lysates (EBC lysis buffer) of MG132-treated UMSCC38-shEV cells, of UMSCC38-shBP3 cells and of OSC19-Luc cells transfected with EV or pCMV6-IGFBP3; IP with anti-vimentin or anti-IGFBP-3 antibodies, Protein A agarose, Western blot.
The target in test [3] is GST-tagged recombinant full-length vimentin protein (human) (UniProt P08670). Kind of test: pull-down; glutathione-agarose-bound GST-vimentin incubated with UMSCC38 cell lysates; TNE binding buffer, 2 h or overnight at 4 °C; Western blot; only the target purified.
The target in test [4] is GST-tagged vimentin head domain deletion mutant ΔH (102-467 aa) (human) (UniProt P08670). Kind of test: pull-down; in vitro binding: glutathione-agarose-bound GST-vimentin (full-length, domains or deletion mutants) incubated with purified recombinant IGFBP-3 or its C-terminal domain; TNE binding buffer, 4 °C; Western blot; both purified.
For test [5], the target named is vimentin, endogenous (human (endogenous in UMSCC38, OSC19-Luc, HEK293T)) (UniProt P08670). Kind of test: co-IP; UM38-shBP3 cells transfected with HA-FBXL14, treated with rBP3 (5 µg/mL) for 48 h, with or without MG132 (10 µM) 6 h, washed; IP of lysates (antibody not told), Western blot; rBP3 added as recombinant protein; only the binder purified.

The chains behind the UniProt entries cited, without tags or fusion partners. Where a name states a change or a piece, a line headed by the entry shows the natural chain unless it says otherwise. A line that says so, or that is headed by a name, gives the form on record, which may keep a tag or linker. Residues count along the entry.
UniProt Q8N1E6: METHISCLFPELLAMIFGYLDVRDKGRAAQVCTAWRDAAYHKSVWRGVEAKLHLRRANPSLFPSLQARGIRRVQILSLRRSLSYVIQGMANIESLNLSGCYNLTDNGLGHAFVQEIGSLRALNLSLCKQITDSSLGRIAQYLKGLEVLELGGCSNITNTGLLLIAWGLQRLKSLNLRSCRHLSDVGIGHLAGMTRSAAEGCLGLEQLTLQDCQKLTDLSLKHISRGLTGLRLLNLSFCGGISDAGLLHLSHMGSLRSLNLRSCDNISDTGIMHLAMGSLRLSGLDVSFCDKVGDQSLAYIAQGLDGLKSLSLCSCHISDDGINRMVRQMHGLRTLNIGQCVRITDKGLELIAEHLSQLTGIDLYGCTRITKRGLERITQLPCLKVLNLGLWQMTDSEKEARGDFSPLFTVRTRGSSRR
UniProt P08670: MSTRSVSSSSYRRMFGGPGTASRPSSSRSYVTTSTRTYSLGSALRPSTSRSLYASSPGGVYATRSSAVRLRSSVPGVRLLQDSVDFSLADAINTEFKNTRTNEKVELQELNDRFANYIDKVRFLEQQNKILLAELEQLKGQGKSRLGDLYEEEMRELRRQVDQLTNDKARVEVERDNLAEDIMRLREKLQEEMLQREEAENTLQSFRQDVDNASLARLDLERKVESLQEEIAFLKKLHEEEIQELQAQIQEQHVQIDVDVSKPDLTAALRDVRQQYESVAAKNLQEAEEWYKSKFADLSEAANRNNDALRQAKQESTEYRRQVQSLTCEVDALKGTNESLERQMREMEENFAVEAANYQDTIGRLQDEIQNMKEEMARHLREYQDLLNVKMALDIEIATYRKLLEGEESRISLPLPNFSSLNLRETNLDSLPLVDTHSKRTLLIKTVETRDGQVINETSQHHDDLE
GST-tagged vimentin head domain deletion mutant ΔH (102-467 aa): residues 102-466 of P08670
UniProt P17936, residues 28-291: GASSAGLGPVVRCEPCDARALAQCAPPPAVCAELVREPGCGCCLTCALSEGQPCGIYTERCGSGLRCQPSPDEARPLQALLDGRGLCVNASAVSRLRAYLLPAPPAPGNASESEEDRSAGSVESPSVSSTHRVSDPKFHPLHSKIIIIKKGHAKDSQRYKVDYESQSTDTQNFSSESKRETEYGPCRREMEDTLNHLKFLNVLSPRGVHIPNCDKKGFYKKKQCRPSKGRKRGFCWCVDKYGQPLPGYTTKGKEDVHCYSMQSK

Results are given in words; binding and its absence hold for the method and conditions named. For some assays here: In cells and extracts the contact can be indirect. Some binding calls cover weakened binding; strength is not graded here. For some assays here: Sequences can lack the tags named with a protein.

On to “IGFBP-3 expressed from pCMV6-IGFBP3 (no signal peptide) (from UniProt P17936 28-291)”, for which the binding result (with HA-tagged FBXL14; in test [1]; in test [2]) was “binds” in each case.

“insulin-like growth factor binding protein-3 (IGFBP-3), endogenous (from UniProt P17936 28-291)”: the binding entry in test [3] and in test [2] was “binds” in each case.

As for “recombinant IGFBP-3 protein (rBP3) of the in vitro binding assays with vimentin domains (from UniProt P17936 28-291)”, in test [4], the binding result is listed as “no binding”.

Consider “recombinant IGFBP-3 protein in full-length [rBP3 (FL)], added to cells (from UniProt P17936 28-291)”, for which the binding result in test [5] is “binds”.

B1: Flag-tagged FBXO1 (Cyclin F) (enzyme, UniProt P41002 1-786)
chain: MGSGGVVHCRCAKCFCYPTKRRIRRRPRNLTILSLPEDVLFHILKWLSVEDILAVRAVHSQLKDLVDNHASVWACASFQELWPSPGNLKLFERAAEKGNFEAAVKLGIAYLYNEGLSVSDEARAEVNGLKASRFFSLAERLNVGAAPFIWLFIRPPWSVSGSCCKAVVHESLRAECQLQRTHKASILHCLGRVLSLFEDEEKQQQAHDLFEEAAHQGCLTSSYLLWESDRRTDVSDPGRCLHSFRKLRDYAAKGCWEAQLSLAKACANANQLGLEVRASSEIVCQLFQASQAVSKQQVFSVQKGLNDTMRYILIDWLVEVATMKDFTSLCLHLTVECVDRYLRRRLVPRYRLQLLGIACMVICTRFISKEILTIREAVWLTDNTYKYEDLVRMMGEIVSALEGKIRVPTVVDYKEVLLTLVPVELRTQHLCSFLCELSLLHTSLSAYAPARLAAAALLLARLTHGQTQPWTTQLWDLTGFSYEDLIPCVLSLHKKCFHDDAPKDYRQVSLTAVKQRFEDKRYGEISQEEVLSYSQLCAALGVTQDSPDPPTFLSTGEIHAFLSSPSGRRTKRKRENSLQEDRGSFVTTPTAELSSQEETLLGSFLDWSLDCCSGYEGDQESEGEKEGDVTAPSGILDVTVVYLNPEQHCCQESSDEEACPEDKGPQDPQALALDTQIPATPGPKPLVRTSREPGKDVTTSGYSSVSTASPTSSVDGGLGALPQPTSVLSLDSDSHTQPCHHQARKSCLQCRPPSPPESSVPQQQVKRINLCIHSEEEDMNLGLVRL
Take B1: the binding entry in test [1] is recorded as “no binding”.
